The other results are listed elsewhere or left out.
What was measured:
Assay in all cases: log2 fold change, soluble protein after heating vs DMSO (PISA); higher = thermal stabilisation; K562 cells, 10 uM, 30 min; active = over 0.2 and 3.5 SD of the protein, either way, in both replicates (recomputed)
[1] = compound: Cc1ccc(C(=O)N(CCCN)[C@@H](c2nc3cc(Cl)ccc3c(=O)n2Cc2ccccc2)C(C)C)cc1 [ispinesib]
Summary of the method: (§1)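 K562 cells at 2×10^6 cells/mL were given 10 μM compound for 30 min. Aliquots then went through 3 min of heating across 48°C-58°C, were pooled, and were extracted in PBS with 0.5% NP-40 at 4°C, and the supernatant after 21,000xg for 90 min was quantified by TMTpro 16plex LC-MS/MS with channel sums equalised. Thermal stability relative to control samples, from duplicates, is given as log2 fold change.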

Protein sequences, listed by entry. Tags and fused reporters are not part of them. Lines headed by an entry give the natural chain unless they say otherwise; changes in a name come on top.
UniProt P30711: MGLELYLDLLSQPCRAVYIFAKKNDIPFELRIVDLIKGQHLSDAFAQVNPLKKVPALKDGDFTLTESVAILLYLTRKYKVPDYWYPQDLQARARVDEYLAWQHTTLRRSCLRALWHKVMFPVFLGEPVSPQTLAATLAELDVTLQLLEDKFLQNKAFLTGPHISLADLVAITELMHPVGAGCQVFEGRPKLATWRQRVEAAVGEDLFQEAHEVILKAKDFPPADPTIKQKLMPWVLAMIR
UniProt Q5JVS0: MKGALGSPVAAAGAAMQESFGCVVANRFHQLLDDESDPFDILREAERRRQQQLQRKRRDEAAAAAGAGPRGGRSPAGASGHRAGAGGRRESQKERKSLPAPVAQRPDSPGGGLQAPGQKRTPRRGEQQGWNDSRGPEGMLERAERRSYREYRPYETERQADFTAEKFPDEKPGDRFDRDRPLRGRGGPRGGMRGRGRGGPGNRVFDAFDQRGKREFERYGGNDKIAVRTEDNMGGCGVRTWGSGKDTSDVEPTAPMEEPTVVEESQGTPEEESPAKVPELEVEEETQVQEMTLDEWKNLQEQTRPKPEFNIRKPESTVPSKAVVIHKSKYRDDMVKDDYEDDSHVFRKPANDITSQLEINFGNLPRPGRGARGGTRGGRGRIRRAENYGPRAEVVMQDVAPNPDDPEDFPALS
UniProt A2PYH4: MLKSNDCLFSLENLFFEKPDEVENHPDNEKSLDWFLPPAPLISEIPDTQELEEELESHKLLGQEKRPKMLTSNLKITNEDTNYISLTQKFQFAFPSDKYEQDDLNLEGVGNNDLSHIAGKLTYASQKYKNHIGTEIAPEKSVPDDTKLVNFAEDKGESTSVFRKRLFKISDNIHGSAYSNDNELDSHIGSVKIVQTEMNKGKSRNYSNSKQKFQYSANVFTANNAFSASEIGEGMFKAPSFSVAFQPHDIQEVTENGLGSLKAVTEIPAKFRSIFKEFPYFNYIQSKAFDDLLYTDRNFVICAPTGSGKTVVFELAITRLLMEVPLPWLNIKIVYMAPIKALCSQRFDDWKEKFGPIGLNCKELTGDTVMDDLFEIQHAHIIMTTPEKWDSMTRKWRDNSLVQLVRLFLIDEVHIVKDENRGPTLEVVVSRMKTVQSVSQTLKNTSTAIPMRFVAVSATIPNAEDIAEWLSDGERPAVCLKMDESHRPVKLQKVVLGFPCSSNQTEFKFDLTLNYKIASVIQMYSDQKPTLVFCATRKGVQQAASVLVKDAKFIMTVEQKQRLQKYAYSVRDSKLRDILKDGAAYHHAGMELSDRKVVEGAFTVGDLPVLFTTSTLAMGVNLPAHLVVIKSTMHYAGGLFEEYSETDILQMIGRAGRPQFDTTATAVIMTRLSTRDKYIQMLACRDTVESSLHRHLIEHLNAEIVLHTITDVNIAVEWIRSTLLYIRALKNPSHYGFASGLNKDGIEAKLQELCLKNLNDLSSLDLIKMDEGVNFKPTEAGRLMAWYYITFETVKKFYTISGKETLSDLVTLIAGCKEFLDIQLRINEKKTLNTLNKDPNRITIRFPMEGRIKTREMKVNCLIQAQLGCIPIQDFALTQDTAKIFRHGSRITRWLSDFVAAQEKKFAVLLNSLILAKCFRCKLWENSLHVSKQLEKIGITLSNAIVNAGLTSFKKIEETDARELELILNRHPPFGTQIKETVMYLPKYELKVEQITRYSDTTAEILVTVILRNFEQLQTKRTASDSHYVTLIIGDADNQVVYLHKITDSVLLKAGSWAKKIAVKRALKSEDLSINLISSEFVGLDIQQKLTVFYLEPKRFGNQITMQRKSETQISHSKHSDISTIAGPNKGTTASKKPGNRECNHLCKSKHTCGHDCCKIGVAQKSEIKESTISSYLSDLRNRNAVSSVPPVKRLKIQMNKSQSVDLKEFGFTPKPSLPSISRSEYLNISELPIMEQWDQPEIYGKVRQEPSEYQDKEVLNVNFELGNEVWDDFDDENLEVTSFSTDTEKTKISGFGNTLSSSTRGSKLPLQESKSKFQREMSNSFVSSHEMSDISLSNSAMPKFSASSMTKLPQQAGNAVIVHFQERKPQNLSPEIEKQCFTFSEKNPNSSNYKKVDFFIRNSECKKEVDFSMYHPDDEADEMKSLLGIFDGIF
UniProt O75367, whole entry, looked up: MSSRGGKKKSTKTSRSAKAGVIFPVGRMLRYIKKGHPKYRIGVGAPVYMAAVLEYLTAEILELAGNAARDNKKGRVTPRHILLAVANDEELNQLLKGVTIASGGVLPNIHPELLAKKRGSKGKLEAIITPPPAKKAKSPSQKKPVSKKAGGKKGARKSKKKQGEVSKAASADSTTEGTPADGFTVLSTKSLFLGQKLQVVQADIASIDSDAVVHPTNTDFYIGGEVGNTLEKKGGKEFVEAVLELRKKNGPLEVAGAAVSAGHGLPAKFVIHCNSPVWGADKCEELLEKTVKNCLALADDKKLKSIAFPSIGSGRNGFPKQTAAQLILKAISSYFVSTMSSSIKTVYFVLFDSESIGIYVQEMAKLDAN
UniProt Q9UQL6: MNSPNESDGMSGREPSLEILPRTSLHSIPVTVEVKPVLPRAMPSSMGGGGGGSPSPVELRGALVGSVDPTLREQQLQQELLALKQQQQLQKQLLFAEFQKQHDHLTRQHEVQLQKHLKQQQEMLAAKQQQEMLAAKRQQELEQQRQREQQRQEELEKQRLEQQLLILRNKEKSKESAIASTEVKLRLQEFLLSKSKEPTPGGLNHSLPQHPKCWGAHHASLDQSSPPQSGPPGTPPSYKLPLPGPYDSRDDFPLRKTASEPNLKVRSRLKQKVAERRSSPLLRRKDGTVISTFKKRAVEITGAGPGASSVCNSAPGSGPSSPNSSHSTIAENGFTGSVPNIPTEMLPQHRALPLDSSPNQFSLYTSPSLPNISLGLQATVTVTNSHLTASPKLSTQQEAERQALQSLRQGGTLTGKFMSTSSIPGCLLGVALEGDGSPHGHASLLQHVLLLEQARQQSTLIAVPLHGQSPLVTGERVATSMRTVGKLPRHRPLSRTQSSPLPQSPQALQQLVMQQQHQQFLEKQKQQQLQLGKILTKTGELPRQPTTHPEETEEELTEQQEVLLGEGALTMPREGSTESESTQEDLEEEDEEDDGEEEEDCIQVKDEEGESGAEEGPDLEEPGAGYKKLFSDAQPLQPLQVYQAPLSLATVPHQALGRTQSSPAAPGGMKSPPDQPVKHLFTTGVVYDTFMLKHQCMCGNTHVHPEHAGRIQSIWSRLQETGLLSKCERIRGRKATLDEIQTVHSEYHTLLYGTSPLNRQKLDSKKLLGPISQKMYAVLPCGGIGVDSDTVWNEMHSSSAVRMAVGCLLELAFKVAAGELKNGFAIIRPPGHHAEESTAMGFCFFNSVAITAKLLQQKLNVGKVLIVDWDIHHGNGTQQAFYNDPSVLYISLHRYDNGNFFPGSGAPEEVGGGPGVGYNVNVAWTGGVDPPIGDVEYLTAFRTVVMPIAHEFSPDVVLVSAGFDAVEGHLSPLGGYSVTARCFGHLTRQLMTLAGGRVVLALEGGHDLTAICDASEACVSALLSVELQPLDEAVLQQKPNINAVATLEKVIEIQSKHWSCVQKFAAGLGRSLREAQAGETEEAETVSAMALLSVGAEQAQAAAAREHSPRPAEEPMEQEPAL
UniProt Q8N3Z3: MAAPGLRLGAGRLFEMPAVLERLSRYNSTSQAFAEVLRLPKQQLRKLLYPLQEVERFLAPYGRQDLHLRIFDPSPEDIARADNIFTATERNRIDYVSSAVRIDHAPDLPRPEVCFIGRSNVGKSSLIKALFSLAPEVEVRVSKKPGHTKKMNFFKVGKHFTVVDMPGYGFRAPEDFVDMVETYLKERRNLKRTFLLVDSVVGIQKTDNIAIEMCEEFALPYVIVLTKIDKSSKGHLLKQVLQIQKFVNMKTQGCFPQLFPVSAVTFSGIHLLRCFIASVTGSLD
UniProt P08263: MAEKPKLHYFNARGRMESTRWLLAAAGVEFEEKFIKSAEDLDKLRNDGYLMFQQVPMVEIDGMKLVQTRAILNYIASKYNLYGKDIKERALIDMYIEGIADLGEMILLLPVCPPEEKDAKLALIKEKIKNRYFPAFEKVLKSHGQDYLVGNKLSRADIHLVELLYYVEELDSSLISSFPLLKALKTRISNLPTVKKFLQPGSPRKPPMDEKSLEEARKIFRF
UniProt Q9NRZ9: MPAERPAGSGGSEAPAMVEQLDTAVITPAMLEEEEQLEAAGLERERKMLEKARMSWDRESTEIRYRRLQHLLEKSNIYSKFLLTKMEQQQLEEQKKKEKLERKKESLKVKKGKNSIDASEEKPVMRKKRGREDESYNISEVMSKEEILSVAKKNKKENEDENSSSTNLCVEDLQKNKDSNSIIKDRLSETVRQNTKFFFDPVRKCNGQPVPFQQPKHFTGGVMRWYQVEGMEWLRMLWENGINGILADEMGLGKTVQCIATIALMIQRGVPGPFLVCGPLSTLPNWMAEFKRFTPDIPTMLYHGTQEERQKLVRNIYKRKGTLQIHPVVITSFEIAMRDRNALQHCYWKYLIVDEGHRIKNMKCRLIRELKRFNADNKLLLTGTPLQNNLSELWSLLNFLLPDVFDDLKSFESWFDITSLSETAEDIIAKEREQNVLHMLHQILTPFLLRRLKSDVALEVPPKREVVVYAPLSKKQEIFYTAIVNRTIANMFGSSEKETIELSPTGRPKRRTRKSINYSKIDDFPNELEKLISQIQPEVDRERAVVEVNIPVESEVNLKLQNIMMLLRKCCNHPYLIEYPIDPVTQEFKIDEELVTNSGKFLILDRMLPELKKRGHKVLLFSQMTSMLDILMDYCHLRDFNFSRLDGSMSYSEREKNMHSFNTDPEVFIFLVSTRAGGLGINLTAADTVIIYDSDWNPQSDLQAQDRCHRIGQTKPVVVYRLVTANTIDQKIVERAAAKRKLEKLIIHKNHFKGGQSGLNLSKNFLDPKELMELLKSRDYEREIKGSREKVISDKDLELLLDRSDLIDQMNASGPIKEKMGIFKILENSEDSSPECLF
UniProt Q99871: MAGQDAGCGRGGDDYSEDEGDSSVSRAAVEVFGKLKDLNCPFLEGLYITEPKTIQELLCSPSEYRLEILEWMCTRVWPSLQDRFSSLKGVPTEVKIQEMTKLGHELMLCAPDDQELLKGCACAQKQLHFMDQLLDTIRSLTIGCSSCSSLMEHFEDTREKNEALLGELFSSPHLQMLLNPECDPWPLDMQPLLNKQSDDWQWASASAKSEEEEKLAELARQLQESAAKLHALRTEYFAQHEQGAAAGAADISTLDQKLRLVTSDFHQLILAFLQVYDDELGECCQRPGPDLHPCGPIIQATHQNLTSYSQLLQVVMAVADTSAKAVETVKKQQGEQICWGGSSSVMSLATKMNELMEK
UniProt P32780: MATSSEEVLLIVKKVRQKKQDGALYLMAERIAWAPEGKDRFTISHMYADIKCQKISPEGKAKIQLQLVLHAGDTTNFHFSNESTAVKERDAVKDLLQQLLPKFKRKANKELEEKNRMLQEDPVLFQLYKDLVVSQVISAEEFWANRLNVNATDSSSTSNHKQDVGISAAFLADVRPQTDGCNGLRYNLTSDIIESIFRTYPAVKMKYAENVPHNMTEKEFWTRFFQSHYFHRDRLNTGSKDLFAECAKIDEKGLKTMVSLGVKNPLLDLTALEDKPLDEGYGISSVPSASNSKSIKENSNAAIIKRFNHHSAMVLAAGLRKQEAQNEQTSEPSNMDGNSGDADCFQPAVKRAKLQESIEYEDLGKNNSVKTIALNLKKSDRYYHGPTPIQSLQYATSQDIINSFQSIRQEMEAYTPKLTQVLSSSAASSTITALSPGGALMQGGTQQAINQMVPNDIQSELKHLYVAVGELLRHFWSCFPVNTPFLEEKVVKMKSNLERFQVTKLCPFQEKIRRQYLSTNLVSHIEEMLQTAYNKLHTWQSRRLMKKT
UniProt Q969S8: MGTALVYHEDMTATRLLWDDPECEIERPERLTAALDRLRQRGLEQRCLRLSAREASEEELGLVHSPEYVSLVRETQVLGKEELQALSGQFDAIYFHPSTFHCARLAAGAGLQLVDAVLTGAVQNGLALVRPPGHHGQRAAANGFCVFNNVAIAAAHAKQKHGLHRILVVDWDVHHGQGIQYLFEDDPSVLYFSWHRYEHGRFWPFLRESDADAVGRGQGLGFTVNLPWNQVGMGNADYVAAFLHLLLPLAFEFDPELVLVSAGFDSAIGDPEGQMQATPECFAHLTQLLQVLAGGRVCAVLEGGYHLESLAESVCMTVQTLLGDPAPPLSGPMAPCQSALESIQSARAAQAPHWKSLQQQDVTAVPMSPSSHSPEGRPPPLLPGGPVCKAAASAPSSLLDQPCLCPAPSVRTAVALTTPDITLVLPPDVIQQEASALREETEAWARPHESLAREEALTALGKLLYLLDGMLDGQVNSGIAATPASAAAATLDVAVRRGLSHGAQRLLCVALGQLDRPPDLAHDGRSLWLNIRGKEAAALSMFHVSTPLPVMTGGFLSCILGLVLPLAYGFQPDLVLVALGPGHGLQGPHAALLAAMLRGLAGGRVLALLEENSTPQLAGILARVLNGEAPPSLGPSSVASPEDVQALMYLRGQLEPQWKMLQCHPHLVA

[2] = compound: Cc1cc(Nc2cc(CN3CCOCC3)c3nc(C)c(Cc4ccc(Cl)cc4F)n3n2)n[nH]1 [gandotinib]
Summary of the method: as §1

[3] = compound: Cc1cc(Nc2cc(N3CCN(C)CC3)nc(Sc3ccc(NC(=O)C4CC4)cc3)n2)n[nH]1 [tozasertib]
Summary of the method: as §1

[4] = compound: C[C@@H](Oc1cc(-c2cnn(C3CCNCC3)c2)cnc1N)c1c(Cl)ccc(F)c1Cl [crizotinib]
Summary of the method: as §1

[5] = compound: C[C@@H]1COCCN1C2=NC(=NC(=C2)C3(CC3)S(=O)(=O)C)C4=C5C=CNC5=CC=C4
Summary of the method: as §1

[6] = compound: C[C@H](Nc1ncnc2nc[nH]c12)c1cc2cccc(Cl)c2c(=O)n1-c1ccccc1 [duvelisib]
Summary of the method: as §1

[7] = compound: Cc1cc(SCc2sc(-c3ccc(C(F)(F)F)cc3)nc2C)ccc1OCC(=O)O
Summary of the method: as §1

[8] = compound: Cc1ccc(-n2nc(C(C)(C)C)cc2NC(=O)Nc2ccc(OCCN3CCOCC3)c3ccccc23)cc1 [doramapimod]
Summary of the method: as §1

[9] = compound: CS(=O)(=O)c1ccc(-c2cnc(N)c(C(=O)Nc3ccccc3)n2)cc1
Summary of the method: as §1

[10] = compound: C[C@H](C1=CC=C(C=C1)C(=O)NC2=C3C=CNC3=NC=C2)N
Summary of the method: as §1

Measured: log2 fold change

H3C1 (UniProt P68431)
inactive: [1] 0.57

HBD (UniProt E9PEW8)
inactive: [2] -0.286

HERPUD1 (UniProt Q15011)
inactive: [3] 0.016

HGFAC (UniProt Q04756)
inactive: [4] 0.181 | [5] -0.037 | [6] -0.329 | [3] -0.02 | [7] -0.161 | [8] 0.129

H3-3A (UniProt P84243)
inactive: [9] 0.082 | [10] 0.038 | [7] 0.106

GSTT1 (UniProt P30711)
active: [4] 0.332
inactive: [5] 0.19 | [10] 0.002 | [2] 0.19 | [7] -0.061 | [8] -0.003 | [1] 0.026

HABP4 (UniProt Q5JVS0)
inactive: [5] -0.021 | [1] 0.123

HAL (UniProt P42357)
inactive: [9] -0.138 | [5] 0.122 | [10] -0.074 | [6] -0.168 | [3] 0.219 | [7] -1.11

HFM1 (UniProt A2PYH4)
inactive: [6] -0.027 | [7] 0.049

GTF2H4 (UniProt Q92759)
inactive: [9] 0.019 | [5] 0.018 | [10] 0.011 | [6] 0.009 | [2] 0.167 | [3] -0.087 | [7] 0.047

GSKIP (UniProt Q9P0R6)
inactive: [4] 0.194 | [10] -0.04 | [6] 0.163 | [2] 0.416 | [3] 0.125 | [7] 0.036 | [8] 0.035 | [1] 0.176

HGF (UniProt P14210)
inactive: [9] 0.06 | [5] 0.067 | [10] 0.124 | [6] -0.313 | [3] 0.028 | [7] -0.18

HERPUD2 (UniProt Q9BSE4)
inactive: [4] -0.075 | [10] -0.048 | [6] 0.046 | [7] 0.05 | [8] 0.107 | [1] 0.097

H1-0 (UniProt P07305)
inactive: [6] 0.3 | [7] 0.161

H2AFY (UniProt O75367)
inactive: [4] -0.354 | [5] -0.461 | [10] 0.25 | [2] -0.236 | [3] 0.145 | [8] 0.219 | [1] -0.129

HDAC5 isoform 3 (UniProt Q9UQL6)
inactive: [9] 0.006 | [5] -0.052 | [10] -0.126 | [6] 0.081 | [2] 0.018 | [3] -0.194 | [7] 0.089

GXYLT1 (UniProt Q4G148)
inactive: [4] -0.016 | [5] 0.191 | [10] -0.129 | [6] 0.196 | [2] 0.07 | [3] -0.004 | [7] -0.242 | [8] 0.073 | [1] -0.016

HES1 (UniProt Q14469)
inactive: [4] 0.16 | [10] -0.047 | [6] 0.026 | [2] -0.256 | [3] 0.227 | [7] 0.017 | [8] -0.069

GTPBP8 (UniProt Q8N3Z3)
inactive: [4] 0.019 | [3] 0.047 | [8] 0.042

GSTA1 (UniProt P08263)
inactive: [9] 0.008 | [5] 0.029 | [3] -0.077

HEXD isoform 2 (UniProt Q8WVB3)
inactive: [9] 0.076 | [5] -0.16 | [6] 0.572 | [2] -0.038 | [7] 0.239

HELLS (UniProt Q9NRZ9)
inactive: [5] -0.2 | [2] -0.086

HAUS4 (UniProt Q9H6D7)
inactive: [9] 0.068 | [5] 0.024 | [10] 0.139 | [2] 0.015 | [7] -0.195 | [1] -0.259

GZF1 (UniProt Q9H116)
inactive: [9] 0.154 | [6] -0.132 | [7] 0.063

H6PD (UniProt O95479)
inactive: [9] -0.117 | [5] -0.043 | [10] 0.095 | [6] 0.108 | [2] -0.041 | [3] 0.002 | [7] 0.027 | [1] -0.065

Three records picked at random from those above, as already listed:
GSTA1 (UniProt P08263)
inactive: [9] 0.008 | [5] 0.029 | [3] -0.077

HAUS4 (UniProt Q9H6D7)
inactive: [9] 0.068 | [5] 0.024 | [10] 0.139 | [2] 0.015 | [7] -0.195 | [1] -0.259

GZF1 (UniProt Q9H116)
inactive: [9] 0.154 | [6] -0.132 | [7] 0.063

Further results.

HAUS2 (UniProt Q9NVX0)
inactive: [10] 0.001 | [6] -0.387 | [7] 0.082

HECTD4 (UniProt Q9Y4D8)
inactive: [4] -0.029 | [8] 0.146

HAUS7 isoform 2 (UniProt Q99871)
inactive: [1] 0.373

HACD2 (UniProt Q6Y1H2)
inactive: [10] 0.288 | [3] -0.017

GTPBP4 (UniProt Q9BZE4)
inactive: [9] -0.067 | [5] -0.241 | [10] 0.74 | [6] -0.184 | [2] 0.098 | [3] -0.048 | [7] -0.051 | [1] -0.25

HAUS8 (UniProt Q9BT25)
inactive: [10] 0.251 | [2] 0.141 | [1] -0.116

HACE1 (UniProt Q8IYU2)
inactive: [3] -0.083

GTF2H1 (UniProt P32780)
inactive: [4] -0.014 | [10] 0.248 | [2] 0.055 | [8] 0.089 | [1] -0.119

HAUS3 (UniProt Q68CZ6)
inactive: [4] -0.073 | [5] -0.162 | [10] 0.207 | [6] 0.103 | [3] 0.029 | [7] 0.122 | [8] 0.183 | [1] -0.208

HDAC10 (UniProt Q969S8)
inactive: [10] -0.045 | [2] 0.008 | [7] 0.042 | [1] 0.065

Reference: the supplement of paper PMC10849652
